From patent US20250075147A1, “FRAGRANCE AND FLAVOR COMPOSITIONS COMPRISING NEW FLAVOR AND FRAGRANCE INGREDIENTS” (priority 2023, published 2025)

Experiments:
[1] = Evaluation by trained and/or certified flavor or fragrance chemists or master perfumers; categorization by commercial prospect; conditions: for Rating: category of commercial prospect, (A) highest > (B) > (C) > (D) lowest, (E) requires further study; for Rating (category of commercial prospect): evaluation by trained flavor or fragrance chemists or master perfumers
odor evaluation panel = assay: Odor evaluation panel rating of odorants by Rate-All-That-Apply (RATA) method with 55-word odor lexicon, plus intensity and pleasantness; parameters: species or system human; conditions: for Floral: mean panelist score for odor label floral (RATA); for Fruity: mean panelist score for odor label fruity (RATA); for Spicy: mean panelist score for odor label spicy (RATA); for Sweet: mean panelist score for odor label sweet (RATA); for Pleasantness: mean panelist score for odor pleasantness

| Compound | Rating [1] | Floral (odor evaluation panel) | Fruity (odor evaluation panel) | Spicy (odor evaluation panel) | Sweet (odor evaluation panel) | Pleasantness (odor evaluation panel) | Rating (category of commercial prospect) [1] |
| --- | --- | --- | --- | --- | --- | --- | --- |
| COc1ccc(CCCCO)cc1 [Compound 306, 4-(4-methoxyphenyl)butan-1-ol] | (D) | 0.306 | 0.167 | 0.278 | 0.611 |  |  |
| CCCC(=O)OCCOC(=O)CCC [Compound 203, 2-butanoyloxyethyl butanoate] | (D) | 0.125 | 0.594 | 0.125 | 0.312 | 4.853 |  |
| CCOC(=O)CCN1CCCCC1 [Compound 848, ethyl 3-piperidin-1-ylpropanoate] |  | 0.056 | 0 | 0.167 | 0 |  | (D) |
| CCC(O)(CC)CC [Compound 340, 3-ethylpentan-3-ol] | (B) | 0.031 | 0.156 | 0 | 0.531 | 5.025 |  |
| COc1c(C)cnc(CO)c1C [Compound 80, (4-methoxy-3,5-dimethylpyridin-2-yl)methanol] | (D) | 0 | 0 | 0.167 | 0.2 | 4.967 |  |
| CC(C)(C)CCO [Compound 485, 3,3-dimethylbutan-1-ol] | (D) | 0.452 | 0.516 | 0 | 0.742 | 4.235 |  |
| CC(C)(C)SC(C)(C)C [Compound 898, 2-tert-butylsulfany1-2-methylpropane] |  | 0.194 | 0.167 | 0.167 | 0.194 |  | (D) |
